Article PMC3372538
No constants are given. Whether binding was seen depends on the method and setting. In cells and extracts the contact can be indirect. Some binding calls cover weakened binding; strength is not graded here. Sequences can lack the tags named with a protein.

Protein sequences, listed by entry. Tags and fused reporters are not part of them.
UniProt P53350: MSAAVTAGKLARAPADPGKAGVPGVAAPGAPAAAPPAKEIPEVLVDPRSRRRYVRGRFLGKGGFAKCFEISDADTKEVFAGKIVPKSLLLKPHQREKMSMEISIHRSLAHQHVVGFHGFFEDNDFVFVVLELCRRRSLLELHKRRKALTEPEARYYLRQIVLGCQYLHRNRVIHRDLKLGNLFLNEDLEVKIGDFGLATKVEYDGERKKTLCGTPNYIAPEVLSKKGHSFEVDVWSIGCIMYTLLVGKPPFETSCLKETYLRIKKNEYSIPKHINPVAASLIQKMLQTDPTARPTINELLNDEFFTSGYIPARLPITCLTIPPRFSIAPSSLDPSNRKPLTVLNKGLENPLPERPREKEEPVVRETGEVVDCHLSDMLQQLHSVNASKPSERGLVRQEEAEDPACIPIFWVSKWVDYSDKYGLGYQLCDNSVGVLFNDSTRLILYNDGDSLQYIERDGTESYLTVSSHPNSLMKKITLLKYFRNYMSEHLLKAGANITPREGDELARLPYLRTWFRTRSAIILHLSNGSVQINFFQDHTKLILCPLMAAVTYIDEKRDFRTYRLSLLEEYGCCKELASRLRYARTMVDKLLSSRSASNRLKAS

Key:
[1] = target: T1, Flag.NPHP1-237-670 (human) (UniProt O15259); assay: co-IP; both partners overexpressed with tags in co-transfected HEK293T cells; lysis in CelLytic M with protease and phosphatase inhibitors; lysates incubated 2 h with anti-Flag M2 affinity gel, washed, Western blot
T1 sequence: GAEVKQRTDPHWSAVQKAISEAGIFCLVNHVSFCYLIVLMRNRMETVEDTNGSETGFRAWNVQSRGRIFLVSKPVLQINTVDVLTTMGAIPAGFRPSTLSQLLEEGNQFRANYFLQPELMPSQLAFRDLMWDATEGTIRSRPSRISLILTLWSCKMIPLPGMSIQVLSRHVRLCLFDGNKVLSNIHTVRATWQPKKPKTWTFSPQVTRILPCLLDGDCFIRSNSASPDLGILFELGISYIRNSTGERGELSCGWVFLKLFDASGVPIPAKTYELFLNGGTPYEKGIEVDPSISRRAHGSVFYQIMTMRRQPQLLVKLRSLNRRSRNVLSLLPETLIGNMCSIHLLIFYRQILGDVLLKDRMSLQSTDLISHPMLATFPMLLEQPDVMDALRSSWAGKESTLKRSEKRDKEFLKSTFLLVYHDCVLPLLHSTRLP

[2] = target: T2, Flag-tagged nephrocystin-1 (Flag.NPHP1) (human) (UniProt O15259); assay: as above
T2 sequence: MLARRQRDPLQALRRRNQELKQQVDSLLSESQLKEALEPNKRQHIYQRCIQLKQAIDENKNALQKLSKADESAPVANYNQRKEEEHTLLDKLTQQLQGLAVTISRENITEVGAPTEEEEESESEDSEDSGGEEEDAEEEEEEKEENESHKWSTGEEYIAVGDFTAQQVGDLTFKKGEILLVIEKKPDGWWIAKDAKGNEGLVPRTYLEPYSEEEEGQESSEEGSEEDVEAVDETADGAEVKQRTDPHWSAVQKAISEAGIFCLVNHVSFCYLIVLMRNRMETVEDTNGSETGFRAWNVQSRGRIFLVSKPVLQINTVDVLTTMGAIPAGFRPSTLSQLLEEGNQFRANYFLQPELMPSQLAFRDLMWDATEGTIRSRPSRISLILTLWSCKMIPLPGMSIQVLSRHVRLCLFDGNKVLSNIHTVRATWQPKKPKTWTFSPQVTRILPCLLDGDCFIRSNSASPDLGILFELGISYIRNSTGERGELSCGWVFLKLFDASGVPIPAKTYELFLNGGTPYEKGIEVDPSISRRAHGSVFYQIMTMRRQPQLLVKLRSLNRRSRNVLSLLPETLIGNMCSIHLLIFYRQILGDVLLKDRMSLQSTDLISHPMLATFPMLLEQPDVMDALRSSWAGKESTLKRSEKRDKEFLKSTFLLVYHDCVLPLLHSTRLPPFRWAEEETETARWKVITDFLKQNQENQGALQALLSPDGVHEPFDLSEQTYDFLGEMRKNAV

[3] = target: T3, Flag.NPHP-481-732 (human) (UniProt O15259); assay: as above
T3 sequence: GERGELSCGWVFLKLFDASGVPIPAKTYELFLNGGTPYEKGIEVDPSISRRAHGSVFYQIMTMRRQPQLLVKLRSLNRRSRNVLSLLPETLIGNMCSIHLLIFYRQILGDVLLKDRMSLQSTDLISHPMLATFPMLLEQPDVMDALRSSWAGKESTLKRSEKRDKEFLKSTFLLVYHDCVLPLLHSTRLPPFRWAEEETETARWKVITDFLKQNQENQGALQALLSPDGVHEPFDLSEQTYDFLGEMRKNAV

[4] = target: T2, Flag-tagged nephrocystin-1 (Flag.NPHP1) (human); assay: co-IP; Flag-tagged bait overexpressed in HEK293T cells, endogenous Plk1 as prey; anti-Flag M2 affinity gel 2 h, Western blot with an antibody against Plk1

binding [1] | binding [2] | binding [3] | binding [4] | Substance
binds | binds | binds | – | Myc-tagged Polo-like kinase 1 (myc.PLK1) (from UniProt P53350 1-603) (enzyme)
– | – | – | binds | endogenous Polo-like kinase 1 (Plk1) (from UniProt P53350 1-603) (enzyme)
